Laboratory results as given in patent publication US20240190996A1.
No constants are given. Whether binding was seen depends on the method and setting. Some results given as binding are weak or reduced against the parent protein; the word gives no strength.

Target: mfFXI.mmh (REGN3883) (cynomolgus monkey (Macaca fascicularis))
Experiment: SPR (Biacore), REGN7508 captured on anti-hFcG, 25C, pH 7.4

B1: REGN7508 (antibody, human IgG4 S228P, kappa, V domains shown)
VH: QVQLVESGGGLVKPGGSLRLSCAASGFTFSDYSMNWIRQAPGKGLEWISYISFSGNSIYYADSVKGRFTISRDNAKNSLYLQMNSLRVEDTAIYYCTSRDWGYAFDIWGQGTMVTVSS
VL: DIQMTQSPSFLSASLGDRVTITCQASQDISNYLNWYQVKPGKAPKLLIYDASNLETGVPSRFSGSGSGTDFTFTISSLQPEDIATYFCQQYDNLPYIFGQGTKLEIKR
- binding: binds
